{"source": "patent US4598066A", "about": "“Antimycoplasmal agent for animals and method of use for prevention and treatment of mycoplasmosis” (Fujisawa Pharmaceutical Co., Ltd., priority 1982, dated 1986)", "format_in_all_cases": "in vivo, chicken", "key": {"[1]": {"test_system": "Mycoplasma gallisepticum 1RF", "assay": "Test 3: Mycoplasma gallisepticum 1RF intranasal infection in chickens, continuous medication in feed"}, "[2]": {"test_system": "Mycoplasma gallisepticum 1RF", "assay": "Test 5: Mycoplasma gallisepticum 1RF intranasal infection in chickens, Compound 1 and tylosin alone and combined", "conditions": "1 mg/kg/day oral at 7, 8, 9, 12 days of age; intranasal infection at 13 days; 20 days after infection (group B)", "description": "Mycoplasma: Mycoplasma gallisepticum 1RF supplied from the National Institute of Animal Health, Ibaraki prefecture, Japan was used.\nChickens used: Broiler males (Chunky), purchased as day-old chickens from a commercial flock free of Mycoplasma gallisepticum agglutinins, were maintained under isolation in an electrically heated battery brooder. When birds reached 7 to 8 days of age, they were used for test.\nInfection of mycoplasma: Mycoplasma gallisepticum 1RF was cultured in PPLO liquid medium (Difco) for 3 to 4 days at 37° C. until the colour of broth changed from red to yellowish organge. An aliquot of the culture (10^7 -10^8 cfu/ml) was used for infection.\nIntranasal infections were produced by dropping 0.05 ml of the culture into the nasal cavity of chickens.\nRecovery of mycoplasma: Twenty to 21 days after infection, the chickens were killed and recovery of mycoplasma was examined from the trachea, air-sac, and tibia-metatarsus joints.\nRecovered organisms were identified as Mycoplasma gallisepticum after examining glucose fermentation, colonies, and haemadsorption test.\nInhibition(%) of infection: Average recovery percentage of Mycoplasma gallisepticum from trachea, air-sac, and tibia-metatarsus joints was measured infected medicated, and infected non-medicated chickens.\nInhibition(%) was calculated as follows: [formula] […]"}, "[3]": {"test_system": "Mycoplasma gallisepticum 1RF", "assay": "Test 2: Mycoplasma gallisepticum 1RF intranasal infection in chickens, oral pre-medication", "conditions": "intranasal infection at 13 days"}}, "note": "At least one peptide structure holds a part that was inferred or is arguable (an end, a ring closure or a residue).", "data": [{"compound": "CCCCCCC(=O)N[C@H](CCC(=O)N[C@@H](CCC[C@@H](N)C(=O)O)C(=O)N[C@H](C)C(=O)O)C(=O)O", "note": "[Compound 1]", "values": [{"measurement": "Inhibition (%) of infection", "setting": "[1]; 0.6 ppm in feed from 7 days before to 20 days after intranasal infection (group E)", "result": 33, "unit": "%"}, {"measurement": "Inhibition (%) of infection", "setting": "[1]; 2.5 ppm in feed from 7 days before to 20 days after intranasal infection (group D)", "result": 44, "unit": "%"}, {"measurement": "Inhibition (%) of infection", "setting": "[1]; 10 ppm in feed from 7 days before to 20 days after intranasal infection (group C)", "result": 78, "unit": "%"}, {"measurement": "Inhibition (%) of infection", "setting": "[1]; 40 ppm in feed from 7 days before to 20 days after intranasal infection (group B)", "result": 33, "unit": "%"}, {"measurement": "Inhibition (%) of infection", "setting": "[2]", "result": 50, "unit": "%"}, {"measurement": "Inhibition (%) of infection", "setting": "[3]; 0.01 mg/kg/day oral at 7, 8, 9, 12 days of age, 20 days after infection (group D)", "result": 50, "unit": "%"}, {"measurement": "Inhibition (%) of infection", "setting": "[3]; 0.1 mg/kg/day oral at 7, 8, 9, 12 days of age, 20 days after infection (group C)", "result": 58, "unit": "%"}, {"measurement": "Inhibition (%) of infection", "setting": "[3]; 1 mg/kg/day oral at 7, 8, 9, 12 days of age, 20 days after infection (group B)", "result": 58, "unit": "%"}]}]}
